According to the supplement of paper PMC10849652:
Some of the results follow.

Sequences of proteins named here, by UniProt entry; tags and fusion partners are left off. A change or cut given only in a name is not applied to a line headed by its entry.
UniProt Q96NT0: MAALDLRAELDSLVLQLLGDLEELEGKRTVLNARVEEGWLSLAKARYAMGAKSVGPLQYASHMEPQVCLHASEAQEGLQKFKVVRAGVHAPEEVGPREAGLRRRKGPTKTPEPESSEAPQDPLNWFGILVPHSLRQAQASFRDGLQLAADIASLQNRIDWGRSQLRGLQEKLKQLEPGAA
UniProt Q9NPF0: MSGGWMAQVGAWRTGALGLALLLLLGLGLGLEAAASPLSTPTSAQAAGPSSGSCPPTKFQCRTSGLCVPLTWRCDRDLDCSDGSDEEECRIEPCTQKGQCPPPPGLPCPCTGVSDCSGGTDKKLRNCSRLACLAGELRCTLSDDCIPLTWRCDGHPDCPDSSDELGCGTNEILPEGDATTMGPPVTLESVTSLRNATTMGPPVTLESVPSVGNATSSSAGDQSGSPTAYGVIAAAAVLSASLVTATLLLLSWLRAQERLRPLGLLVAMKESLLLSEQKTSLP
UniProt Q8N4T8: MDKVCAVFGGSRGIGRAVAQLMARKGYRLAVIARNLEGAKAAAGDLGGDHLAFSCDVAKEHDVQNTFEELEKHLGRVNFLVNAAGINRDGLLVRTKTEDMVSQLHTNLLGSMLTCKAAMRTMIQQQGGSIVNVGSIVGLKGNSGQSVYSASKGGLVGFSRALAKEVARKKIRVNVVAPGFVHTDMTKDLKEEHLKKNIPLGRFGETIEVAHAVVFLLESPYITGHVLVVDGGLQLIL
UniProt Q13185: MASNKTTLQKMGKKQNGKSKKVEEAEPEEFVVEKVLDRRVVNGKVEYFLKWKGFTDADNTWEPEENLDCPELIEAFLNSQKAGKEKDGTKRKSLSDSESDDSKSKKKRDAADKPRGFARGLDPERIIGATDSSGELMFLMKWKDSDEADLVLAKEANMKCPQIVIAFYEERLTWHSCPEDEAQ
UniProt P15529: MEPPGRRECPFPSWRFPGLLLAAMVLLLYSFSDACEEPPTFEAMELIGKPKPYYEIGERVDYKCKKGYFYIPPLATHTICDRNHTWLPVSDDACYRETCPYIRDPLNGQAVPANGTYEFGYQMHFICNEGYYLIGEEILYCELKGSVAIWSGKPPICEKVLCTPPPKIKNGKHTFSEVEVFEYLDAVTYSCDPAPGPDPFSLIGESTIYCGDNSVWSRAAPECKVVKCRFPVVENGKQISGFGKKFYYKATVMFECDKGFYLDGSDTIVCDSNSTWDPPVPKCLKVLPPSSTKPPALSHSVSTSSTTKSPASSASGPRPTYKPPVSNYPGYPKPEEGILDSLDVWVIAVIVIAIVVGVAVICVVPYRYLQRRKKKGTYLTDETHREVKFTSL
UniProt P48960: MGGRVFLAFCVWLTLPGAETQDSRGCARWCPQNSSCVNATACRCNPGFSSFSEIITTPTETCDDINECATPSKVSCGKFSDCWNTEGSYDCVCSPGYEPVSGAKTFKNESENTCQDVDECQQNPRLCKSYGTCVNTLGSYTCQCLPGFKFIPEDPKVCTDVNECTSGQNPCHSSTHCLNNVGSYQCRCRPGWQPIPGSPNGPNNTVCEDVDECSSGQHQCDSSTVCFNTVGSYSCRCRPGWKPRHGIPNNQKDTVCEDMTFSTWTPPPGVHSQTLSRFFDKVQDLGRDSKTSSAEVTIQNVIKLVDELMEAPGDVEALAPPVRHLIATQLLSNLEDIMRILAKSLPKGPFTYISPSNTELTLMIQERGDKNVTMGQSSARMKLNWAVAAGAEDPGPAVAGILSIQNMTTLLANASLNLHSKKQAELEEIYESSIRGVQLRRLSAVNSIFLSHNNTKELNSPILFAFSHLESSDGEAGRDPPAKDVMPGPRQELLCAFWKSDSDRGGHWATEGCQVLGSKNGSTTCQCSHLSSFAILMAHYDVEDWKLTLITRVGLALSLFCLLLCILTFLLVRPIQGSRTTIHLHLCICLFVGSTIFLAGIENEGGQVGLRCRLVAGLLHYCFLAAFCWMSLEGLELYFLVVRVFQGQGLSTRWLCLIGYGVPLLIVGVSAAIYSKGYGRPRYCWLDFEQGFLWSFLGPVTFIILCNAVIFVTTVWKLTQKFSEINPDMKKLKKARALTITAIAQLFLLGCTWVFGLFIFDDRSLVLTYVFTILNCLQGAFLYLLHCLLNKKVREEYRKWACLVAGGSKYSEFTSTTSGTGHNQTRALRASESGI
UniProt Q9H6E4: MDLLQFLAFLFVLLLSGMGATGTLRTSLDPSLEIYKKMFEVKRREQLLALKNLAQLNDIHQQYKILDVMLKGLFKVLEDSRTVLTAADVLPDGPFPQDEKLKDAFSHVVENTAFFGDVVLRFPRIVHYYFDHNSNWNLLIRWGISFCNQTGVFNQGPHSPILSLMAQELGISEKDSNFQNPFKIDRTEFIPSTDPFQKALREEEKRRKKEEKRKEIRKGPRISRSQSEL
UniProt Q9UJX2, whole entry, looked up: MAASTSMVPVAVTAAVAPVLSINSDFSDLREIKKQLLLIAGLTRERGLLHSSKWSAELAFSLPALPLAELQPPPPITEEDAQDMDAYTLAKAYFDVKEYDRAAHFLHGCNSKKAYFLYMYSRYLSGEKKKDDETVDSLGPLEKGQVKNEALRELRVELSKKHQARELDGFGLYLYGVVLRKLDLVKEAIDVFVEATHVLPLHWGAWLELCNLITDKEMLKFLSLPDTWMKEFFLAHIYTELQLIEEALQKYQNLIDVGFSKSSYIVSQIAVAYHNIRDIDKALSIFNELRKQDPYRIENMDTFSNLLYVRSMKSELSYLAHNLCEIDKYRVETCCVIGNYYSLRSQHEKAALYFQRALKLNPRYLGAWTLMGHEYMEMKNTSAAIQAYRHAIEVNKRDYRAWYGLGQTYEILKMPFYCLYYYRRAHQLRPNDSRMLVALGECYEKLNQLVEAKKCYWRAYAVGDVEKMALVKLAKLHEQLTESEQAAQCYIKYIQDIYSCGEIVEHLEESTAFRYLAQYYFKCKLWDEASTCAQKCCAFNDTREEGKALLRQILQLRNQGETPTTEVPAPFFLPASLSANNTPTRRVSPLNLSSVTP
UniProt O14618: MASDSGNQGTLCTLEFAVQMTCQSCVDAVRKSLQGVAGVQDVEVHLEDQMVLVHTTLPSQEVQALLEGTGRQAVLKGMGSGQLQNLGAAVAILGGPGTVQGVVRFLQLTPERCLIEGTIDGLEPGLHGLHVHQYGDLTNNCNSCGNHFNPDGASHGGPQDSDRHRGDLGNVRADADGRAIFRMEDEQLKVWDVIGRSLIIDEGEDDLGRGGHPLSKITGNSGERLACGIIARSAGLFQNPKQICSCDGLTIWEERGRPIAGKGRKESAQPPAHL
UniProt P50990: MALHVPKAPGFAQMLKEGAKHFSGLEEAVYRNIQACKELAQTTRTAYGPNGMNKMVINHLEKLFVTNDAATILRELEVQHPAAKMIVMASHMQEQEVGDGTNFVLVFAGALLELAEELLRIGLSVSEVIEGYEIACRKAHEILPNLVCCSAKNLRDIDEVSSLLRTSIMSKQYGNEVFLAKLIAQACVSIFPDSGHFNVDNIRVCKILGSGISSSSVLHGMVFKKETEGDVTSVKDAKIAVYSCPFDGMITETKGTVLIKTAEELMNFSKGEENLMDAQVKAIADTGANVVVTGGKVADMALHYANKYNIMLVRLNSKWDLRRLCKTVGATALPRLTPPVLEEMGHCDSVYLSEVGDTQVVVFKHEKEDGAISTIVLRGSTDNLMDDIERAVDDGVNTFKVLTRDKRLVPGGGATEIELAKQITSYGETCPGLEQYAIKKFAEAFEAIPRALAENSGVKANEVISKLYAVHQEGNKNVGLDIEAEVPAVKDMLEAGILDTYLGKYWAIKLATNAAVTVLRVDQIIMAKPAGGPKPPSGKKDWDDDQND
UniProt Q4VC31: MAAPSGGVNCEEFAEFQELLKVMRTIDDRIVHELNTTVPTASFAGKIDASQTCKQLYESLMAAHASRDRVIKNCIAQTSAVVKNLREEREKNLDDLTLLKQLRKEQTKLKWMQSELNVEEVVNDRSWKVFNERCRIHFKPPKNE
UniProt Q8IVM0: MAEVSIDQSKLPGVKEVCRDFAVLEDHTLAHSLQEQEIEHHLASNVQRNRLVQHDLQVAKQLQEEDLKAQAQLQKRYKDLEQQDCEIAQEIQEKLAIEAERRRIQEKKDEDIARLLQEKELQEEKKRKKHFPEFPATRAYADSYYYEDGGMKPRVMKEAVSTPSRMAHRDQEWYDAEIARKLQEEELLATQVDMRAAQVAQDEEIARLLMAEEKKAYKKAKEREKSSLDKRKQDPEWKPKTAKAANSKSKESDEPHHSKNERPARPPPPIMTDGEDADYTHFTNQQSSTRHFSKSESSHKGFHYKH
UniProt P20248, whole entry, looked up: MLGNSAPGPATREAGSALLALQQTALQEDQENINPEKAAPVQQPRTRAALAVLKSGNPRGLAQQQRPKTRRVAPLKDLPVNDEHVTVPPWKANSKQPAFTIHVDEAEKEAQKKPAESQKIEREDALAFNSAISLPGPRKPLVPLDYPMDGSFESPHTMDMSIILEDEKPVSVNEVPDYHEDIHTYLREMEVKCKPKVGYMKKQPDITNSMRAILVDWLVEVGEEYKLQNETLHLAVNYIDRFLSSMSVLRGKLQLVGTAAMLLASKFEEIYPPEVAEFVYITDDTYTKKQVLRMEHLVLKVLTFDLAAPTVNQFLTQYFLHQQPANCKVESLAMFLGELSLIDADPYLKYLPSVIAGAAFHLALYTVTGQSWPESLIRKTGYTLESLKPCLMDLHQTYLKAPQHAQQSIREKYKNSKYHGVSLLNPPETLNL
UniProt Q6P1N0: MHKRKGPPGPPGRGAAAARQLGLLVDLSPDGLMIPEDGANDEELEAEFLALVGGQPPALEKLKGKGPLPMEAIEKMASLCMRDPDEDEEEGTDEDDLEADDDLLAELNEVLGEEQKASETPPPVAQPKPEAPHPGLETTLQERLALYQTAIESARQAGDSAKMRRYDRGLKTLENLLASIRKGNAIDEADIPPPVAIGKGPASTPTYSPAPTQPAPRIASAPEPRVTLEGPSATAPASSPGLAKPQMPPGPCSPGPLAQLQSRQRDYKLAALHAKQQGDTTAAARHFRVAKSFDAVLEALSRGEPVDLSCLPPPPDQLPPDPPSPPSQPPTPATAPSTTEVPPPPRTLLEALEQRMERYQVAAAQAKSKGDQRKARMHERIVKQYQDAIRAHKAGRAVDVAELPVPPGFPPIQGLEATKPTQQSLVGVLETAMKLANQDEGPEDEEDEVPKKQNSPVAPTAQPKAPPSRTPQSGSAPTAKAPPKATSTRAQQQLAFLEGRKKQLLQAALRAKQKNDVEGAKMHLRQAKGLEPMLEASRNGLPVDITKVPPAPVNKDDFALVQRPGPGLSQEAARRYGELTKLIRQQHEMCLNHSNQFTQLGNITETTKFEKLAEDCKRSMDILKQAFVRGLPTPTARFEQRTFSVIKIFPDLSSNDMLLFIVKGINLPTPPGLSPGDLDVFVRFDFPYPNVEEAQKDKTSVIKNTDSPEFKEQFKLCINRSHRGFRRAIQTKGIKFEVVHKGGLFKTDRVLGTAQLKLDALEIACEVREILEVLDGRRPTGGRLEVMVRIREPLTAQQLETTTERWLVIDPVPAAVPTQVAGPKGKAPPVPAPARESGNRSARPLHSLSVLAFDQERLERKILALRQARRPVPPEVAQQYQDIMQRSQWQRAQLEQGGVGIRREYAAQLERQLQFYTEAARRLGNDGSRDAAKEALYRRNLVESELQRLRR
UniProt Q9ULG6: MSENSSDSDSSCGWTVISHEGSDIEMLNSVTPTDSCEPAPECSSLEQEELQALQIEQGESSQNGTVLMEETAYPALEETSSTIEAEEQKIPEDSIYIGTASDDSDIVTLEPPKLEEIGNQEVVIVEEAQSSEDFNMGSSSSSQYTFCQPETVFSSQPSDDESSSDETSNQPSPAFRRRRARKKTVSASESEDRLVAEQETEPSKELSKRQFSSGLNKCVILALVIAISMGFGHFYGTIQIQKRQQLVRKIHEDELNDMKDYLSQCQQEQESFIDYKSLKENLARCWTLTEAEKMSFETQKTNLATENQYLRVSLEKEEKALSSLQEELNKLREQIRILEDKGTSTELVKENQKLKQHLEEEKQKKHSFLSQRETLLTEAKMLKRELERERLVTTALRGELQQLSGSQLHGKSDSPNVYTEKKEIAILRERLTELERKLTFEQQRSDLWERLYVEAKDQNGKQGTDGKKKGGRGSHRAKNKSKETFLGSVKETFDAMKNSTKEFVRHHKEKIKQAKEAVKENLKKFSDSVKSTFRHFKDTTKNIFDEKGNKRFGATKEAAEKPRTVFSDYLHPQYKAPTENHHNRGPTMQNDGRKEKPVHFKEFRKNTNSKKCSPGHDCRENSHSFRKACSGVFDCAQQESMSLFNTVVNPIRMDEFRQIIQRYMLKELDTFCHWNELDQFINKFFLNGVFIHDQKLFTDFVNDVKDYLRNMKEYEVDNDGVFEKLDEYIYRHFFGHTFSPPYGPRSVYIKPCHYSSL
UniProt P19256, whole entry, looked up: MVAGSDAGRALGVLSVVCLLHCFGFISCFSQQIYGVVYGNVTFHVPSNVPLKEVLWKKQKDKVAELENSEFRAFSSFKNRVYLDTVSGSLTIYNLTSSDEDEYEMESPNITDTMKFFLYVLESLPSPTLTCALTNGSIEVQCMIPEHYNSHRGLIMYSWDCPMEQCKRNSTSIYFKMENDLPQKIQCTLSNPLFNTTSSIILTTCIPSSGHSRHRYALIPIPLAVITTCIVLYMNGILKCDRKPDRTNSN

Legend:
Experiment in all cases: log2 fold change, soluble protein after heating vs DMSO (PISA); higher = thermal stabilisation; K562 cells, 10 uM, 30 min; active = over 0.2 and 3.5 SD of the protein, either way, in both replicates (recomputed)
[1] = compound: CC[C@@H]1C(=O)N(C)c2cnc(Nc3ccc(C(=O)NC4CCN(C)CC4)cc3OC)nc2N1C1CCCC1
In short: (§1)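 For each measurement, 10 μM compound was applied for 30 min to K562 cells at 2×10^6 cells/mL. Aliquots were heated for 3 min across 48°C-58°C, pooled, and extracted in PBS with 0.5% NP-40 at 4°C; the supernatant after 21,000xg for 90 min was soluble protein. This was quantified by TMTpro 16plex LC-MS/MS with channel sums equalised, and thermal stability was reported relative to control samples from duplicates, on a log2 fold-change scale.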

volasertib = compound: CC[C@@H]1C(=O)N(C)c2cnc(Nc3ccc(C(=O)N[C@H]4CC[C@H](N5CCN(CC6CC6)CC5)CC4)cc3OC)nc2N1C(C)C [volasertib]
In short: as §1

[2] = compound: CC[C@H](C)N1C=C(C2=C(C=C(C=C21)C3=CN=C(C=C3)N4CCNCC4)C(=O)NCC5=C(C=C(NC5=O)C)C)C
In short: as §1

epoxomicin = compound: CC[C@H](C)[C@@H](C(=O)N[C@@H]([C@@H](C)O)C(=O)N[C@@H](CC(C)C)C(=O)[C@]1(CO1)C)NC(=O)[C@H]([C@@H](C)CC)N(C)C(=O)C [epoxomicin]
In short: as §1

[3] = compound: CCn1c(C(=O)N(C2CC2)C2CC2)cc2c3c(ncn3C)c(Nc3cc(C)n(C)n3)nc21
In short: as §1

[4] = compound: CCn1cc(-c2ccnc3[nH]c(-c4cccc(CN(C)C)c4)cc23)c(-c2ccc(NC(=O)N(C)C)cc2)n1
In short: as §1

[5] = compound: CN(C)CC(=O)Nc1ccc2[nH]c(=O)c3ccccc3c2c1
In short: as §1

rosiglitazone = compound: CN(CCOC1=CC=C(C=C1)C[C@H]2C(=O)NC(=O)S2)C3=CC=CC=N3 (racemic) [rosiglitazone]
In short: as §1

[6] = compound: CN1C2=C(C3=C1C(=O)N(N=C3)CC4=CC(=CC=C4)N)SC(=C2)S(=O)C
In short: as §1

[7] = compound: CN1CCC(CNc2ccc3ncc(-c4cccc(OC(F)(F)F)c4)n3n2)CC1
In short: as §1

Measured: log2 fold change

CDC27 isoform 2 (UniProt P30260)
inactive: [1] -0.013 | volasertib -0.053 | [2] 0.033 | epoxomicin -0.007 | [3] 0.015 | [4] 0.014 | [5] -0.019 | rosiglitazone 0.013 | [6] -0.005 | [7] 0.014

CASC4 (UniProt Q6P4E1)
inactive: [1] 0.094 | volasertib 0.027 | [2] -0.042 | epoxomicin -0.029 | [3] -0.021 | [4] 0.051 | [5] -0.045 | rosiglitazone 0.001 | [6] -0.019 | [7] 0.054

CCDC115 (UniProt Q96NT0)
inactive: [1] 0.01 | volasertib 0.039 | [2] -0.025 | epoxomicin 0.073 | [3] -0.009 | [4] 0.02 | [5] 0.023 | rosiglitazone -0.022 | [6] 0.097 | [7] 0.219

CD2AP (UniProt Q9Y5K6)
inactive: [1] -0.047 | volasertib -0.108 | [2] 0.023 | epoxomicin 0.038 | [3] -0.019 | [4] -0.027 | [5] -0.001 | rosiglitazone 0.014 | [6] -0.043 | [7] -0.17

CDC37 (UniProt Q16543)
inactive: [1] -0.027 | volasertib -0.024 | [2] 0.021 | epoxomicin 0.049 | [3] 0.009 | [4] 0.001 | [5] -0.004 | rosiglitazone 0.028 | [6] -0.06 | [7] 0.034

CD320 (UniProt Q9NPF0)
inactive: [1] 0.027 | volasertib 0.077 | [2] -0.037 | epoxomicin 0.041 | [3] -0.011 | [4] -0.02 | [5] -0.024 | rosiglitazone 0.007 | [6] -0.049 | [7] -0.008

CBR4 (UniProt Q8N4T8)
inactive: [1] 0 | volasertib 0.023 | [2] 0.042 | epoxomicin -0.055 | [3] -0.012 | [4] -0.038 | [5] -0.011 | rosiglitazone -0.043 | [6] -0.033 | [7] 0.003

CBX3 (UniProt Q13185)
inactive: [1] -0.104 | volasertib -0.169 | [2] 0.105 | epoxomicin 0.222 | [3] 0.053 | [4] 0.049 | [5] 0.007 | rosiglitazone 0.014 | [6] -0.018 | [7] -0.126

CD46 isoform 2 (UniProt P15529)
inactive: [1] 0.059 | volasertib 0.006 | [2] -0.07 | epoxomicin -0.013 | [3] 0.017 | [4] -0.086 | [5] -0.069 | rosiglitazone -0.012 | [6] -0.189 | [7] 0.102

Two entries drawn at random from those above:
CD320 (UniProt Q9NPF0)
inactive: [1] 0.027 | volasertib 0.077 | [2] -0.037 | epoxomicin 0.041 | [3] -0.011 | [4] -0.02 | [5] -0.024 | rosiglitazone 0.007 | [6] -0.049 | [7] -0.008

CD46 isoform 2 (UniProt P15529)
inactive: [1] 0.059 | volasertib 0.006 | [2] -0.07 | epoxomicin -0.013 | [3] 0.017 | [4] -0.086 | [5] -0.069 | rosiglitazone -0.012 | [6] -0.189 | [7] 0.102

(further entries)

CCDC6 (UniProt Q16204)
inactive: [1] 0.022 | volasertib -0.019 | [2] 0.006 | epoxomicin -0.004 | [3] 0.01 | [4] -0.01 | [5] -0.007 | rosiglitazone 0.015 | [6] -0.074 | [7] -0.009

CD97 (UniProt P48960)
inactive: [1] -0.001 | volasertib 0.074 | [2] 0.008 | epoxomicin -0.006 | [3] -0.003 | [4] -0.05 | [5] 0.022 | rosiglitazone -0.047 | [6] 0.04 | [7] -0.172

CCT4 (UniProt P50991)
inactive: [1] -0.004 | volasertib 0.004 | [2] -0.006 | epoxomicin 0.001 | [3] -0.021 | [4] 0.017 | [5] 0.01 | rosiglitazone 0.005 | [6] -0.03 | [7] -0.001

CCDC134 (UniProt Q9H6E4)
inactive: [1] 0.043 | volasertib 0.004 | [2] 0.006 | epoxomicin -0.022 | [3] -0.012 | [4] -0.028 | [5] -0.036 | rosiglitazone 0.029 | [6] 0.101 | [7] 0.055

CCDC86 (UniProt Q9H6F5)
inactive: [1] 0.105 | volasertib 0.317 | [2] -0.074 | epoxomicin -0.237 | [3] -0.034 | [4] 0.294 | [5] -0.064 | rosiglitazone -0.164 | [6] 0.267 | [7] 0.401

CDC23 (UniProt Q9UJX2)
inactive: [1] -0.014 | volasertib -0.074 | [2] 0.022 | epoxomicin -0.009 | [3] 0.031 | [4] 0.039 | [5] 0.001 | rosiglitazone -0.047 | [6] -0.004 | [7] 0.029

CCS (UniProt O14618)
inactive: [1] 0.001 | volasertib 0.007 | [2] 0.05 | epoxomicin 0.017 | [3] -0.007 | [4] -0.005 | [5] -0.025 | rosiglitazone 0.006 | [6] -0.081 | [7] -0.091

CAVIN2 (UniProt O95810)
inactive: [1] -0.004 | volasertib 0.104 | [2] -0.011 | epoxomicin -0.061 | [3] 0.066 | [4] 0.089 | [5] -0.067 | rosiglitazone -0.06 | [6] 0.112 | [7] -0.016

CASP6 (UniProt P55212)
inactive: [1] 0.011 | volasertib 0.065 | [2] -0.024 | epoxomicin 0.044 | [3] 0.031 | [4] 0.011 | [5] 0.011 | rosiglitazone -0.087 | [6] -0.083 | [7] -0.012

CCT2 (UniProt P78371)
inactive: [1] -0.006 | volasertib 0.011 | [2] 0.001 | epoxomicin 0.019 | [3] 0.013 | [4] 0.031 | [5] 0.123 | rosiglitazone 0.007 | [6] -0.036 | [7] -0.024

CD47 (UniProt Q08722)
inactive: [1] 0.114 | volasertib 0.036 | [2] -0.104 | epoxomicin -0.019 | [3] 0.015 | [4] -0.006 | [5] -0.019 | rosiglitazone -0.034 | [6] -0.054 | [7] 0.221

CBFA2T3 (UniProt O75081)
inactive: [1] 0.011 | volasertib -0.017 | [2] 0.031 | epoxomicin -0.172 | [3] 0.015 | [4] -0.048 | [5] 0.003 | rosiglitazone 0.095 | [6] 0.052 | [7] 0.178

CCT8 (UniProt P50990)
inactive: [1] -0.004 | volasertib -0.026 | [2] 0.005 | epoxomicin 0.029 | [3] -0.001 | [4] 0.026 | [5] -0.008 | rosiglitazone 0.007 | [6] -0.041 | [7] -0.018

CCDC58 (UniProt Q4VC31)
inactive: [1] 0.029 | volasertib 0.062 | [2] 0.003 | epoxomicin 0.006 | [3] 0 | [4] 0.012 | [5] -0.043 | rosiglitazone -0.003 | [6] -0.006 | [7] -0.065

CCDC50 (UniProt Q8IVM0)
inactive: [1] 0.019 | volasertib 0.122 | [2] -0.041 | epoxomicin 0.027 | [3] 0.04 | [4] 0.06 | [5] -0.037 | rosiglitazone 0.067 | [6] -0.023 | [7] -0.011

CCT6A (UniProt P40227)
inactive: [1] -0.011 | volasertib -0.008 | [2] -0.006 | epoxomicin 0.022 | [3] -0.003 | [4] 0.066 | [5] -0.006 | rosiglitazone -0.001 | [6] -0.036 | [7] -0.036

CCNA2 (UniProt P20248)
inactive: [1] 0.034 | volasertib 0.043 | [2] -0.007 | epoxomicin 0.024 | [3] 0.022 | [4] -0.067 | [5] -0.004 | rosiglitazone 0.004 | [6] -0.041 | [7] 0.024

CC2D1A (UniProt Q6P1N0)
inactive: [1] -0.141 | volasertib -0.111 | [2] 0.03 | epoxomicin 0.067 | [3] -0.064 | [4] -0.025 | [5] -0.001 | rosiglitazone 0.015 | [6] -0.027 | [7] -0.028

CBWD1 (UniProt Q9BRT8)
inactive: [1] 0.089 | volasertib -0.185 | [2] -0.04 | epoxomicin -0.035 | [3] -0.047 | [4] 0.122 | [5] -0.068 | rosiglitazone 0.122 | [6] 0.082 | [7] -0.175

CCPG1 isoform 5 (UniProt Q9ULG6)
inactive: [1] 0.016 | volasertib -0.041 | [2] 0.01 | epoxomicin 0.048 | [3] 0.008 | [4] 0.021 | [5] -0.049 | rosiglitazone -0.021 | [6] 0.142 | [7] 0.103

CD58 (UniProt P19256)
inactive: [1] 0.096 | volasertib 0.044 | [2] -0.026 | epoxomicin -0.045 | [3] 0.07 | [4] 0.013 | [5] -0.002 | rosiglitazone 0.004 | [6] -0.011 | [7] 0.021
